Results are given in words; binding and its absence hold for the method and conditions named.
Molecular target: Bovine serum albumin (bovine) (UniProt P02769)
Test: far-Western, overlay or dot blot; increasing amounts of purified Fnr, ResD, PlcR and BSA spotted onto nitrocellulose, incubated with biotinylated PlcR or biotinylated ResD under anoxic conditions; streptavidin-HRP, chemiluminescence; both purified

The chains behind the UniProt entries cited, without tags or fusion partners. Residues count along the entry.
UniProt P02769, residues 25-607: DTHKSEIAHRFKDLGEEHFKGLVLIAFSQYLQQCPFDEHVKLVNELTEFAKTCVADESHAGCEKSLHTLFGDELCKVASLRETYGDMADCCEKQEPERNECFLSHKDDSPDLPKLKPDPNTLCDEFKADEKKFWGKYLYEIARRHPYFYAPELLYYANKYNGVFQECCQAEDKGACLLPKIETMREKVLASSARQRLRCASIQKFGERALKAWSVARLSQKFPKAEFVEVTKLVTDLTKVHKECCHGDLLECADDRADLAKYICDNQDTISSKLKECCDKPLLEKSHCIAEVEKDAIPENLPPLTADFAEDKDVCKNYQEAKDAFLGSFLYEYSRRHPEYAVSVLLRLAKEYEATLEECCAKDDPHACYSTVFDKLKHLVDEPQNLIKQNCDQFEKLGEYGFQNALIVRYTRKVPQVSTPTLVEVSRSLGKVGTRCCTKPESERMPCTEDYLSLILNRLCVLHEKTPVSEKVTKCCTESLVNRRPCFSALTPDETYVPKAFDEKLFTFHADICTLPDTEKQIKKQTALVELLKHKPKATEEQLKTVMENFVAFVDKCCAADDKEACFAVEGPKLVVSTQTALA
UniProt Q0GZR8: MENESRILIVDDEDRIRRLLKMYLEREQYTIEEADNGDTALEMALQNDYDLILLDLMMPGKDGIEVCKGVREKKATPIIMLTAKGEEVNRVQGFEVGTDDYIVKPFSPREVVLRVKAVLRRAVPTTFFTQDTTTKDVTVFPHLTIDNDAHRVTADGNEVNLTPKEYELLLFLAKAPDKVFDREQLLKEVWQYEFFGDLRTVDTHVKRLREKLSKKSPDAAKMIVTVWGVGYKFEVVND

“ResD, recombinant purified (from UniProt Q0GZR8 1-238)” was tested, and the binding was “no binding”.

Reference: PMC3520743
